PubChem BioAssay AID1259308 – NCATS – 2017
Screen: 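Knock-downs that increase output of a recombinant reporter protein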 (primary screen). Cell system: human HEK293 embryonic kidney cells stably expressing firefly luciferase (HEK-CMV-Luc2-Hygro). Reagents: single siRNA against human genes, 0.8 pmol siRNA per well. Timing: 72 h. Measured: 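Luciferase light (ONE-Glo) measured on one replicate plate set and viability (CellTiter-Glo) on the other, scaled to a negative control siRNA, with robust z-scores and luciferase per cell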. Direction: total luciferase, z-score: higher = more reporter protein produced. Call rule: 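Active when the median/MAD z-score for overall luciferase is greater than 3; a gene was taken forward for validation with new siRNAs if at least two of its three siRNAs passed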. Calls: active = raised luciferase; inactive = no rise.
The whole screen tested about 59,000 reagents; this is an unselected part. Of all reagents, about 1,510 (2.6%) were called active. 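Calls use total luciferase alone and ignore viability, so some active siRNAs may act by altering cell number.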 The numbers tell different reagents against one gene apart. Further read-outs or replicates are left out here.

CLU (clusterin) #1 | total luciferase, z-score: -0.47; call: inactive
CLU (clusterin) #2 | total luciferase, z-score: 0.308; call: inactive
CLU (clusterin) #3 | total luciferase, z-score: -0.609; call: inactive
SMCR8 (SMCR8-C9orf72 complex subunit) #1 | total luciferase, z-score: 0.222; call: inactive
SMCR8 (SMCR8-C9orf72 complex subunit) #2 | total luciferase, z-score: 1.18; call: inactive
SMCR8 (SMCR8-C9orf72 complex subunit) #3 | total luciferase, z-score: 1.21; call: inactive
PTGIS (prostaglandin I2 synthase) #1 | total luciferase, z-score: -1.03; call: inactive
PTGIS (prostaglandin I2 synthase) #2 | total luciferase, z-score: -0.583; call: inactive
PTGIS (prostaglandin I2 synthase) #3 | total luciferase, z-score: 0.0218; call: inactive
NT5DC1 (5'-nucleotidase domain containing 1) #1 | total luciferase, z-score: -0.0941; call: inactive
NT5DC1 (5'-nucleotidase domain containing 1) #2 | total luciferase, z-score: 1.88; call: inactive
NT5DC1 (5'-nucleotidase domain containing 1) #3 | total luciferase, z-score: -0.221; call: inactive

A stretch of the results above:
PTGIS (prostaglandin I2 synthase) #3 | total luciferase, z-score: 0.0218; call: inactive
NT5DC1 (5'-nucleotidase domain containing 1) #1 | total luciferase, z-score: -0.0941; call: inactive
